Source: patent publication US20210221866A1, “PROTEASE-RESISTANT LIPIDATED GLP-1 ANALOGS” (MEDIMMUNE LIMITED, priority 2015, published 2021)
Not every detail of the peptide structures is certain; ends, links or a residue may be inferred. Numbered stars: 1 amine (or outer) side, 2 acyl side, 3 side chain; on linkers, the order of the positions; unused ones are H or OH. Square brackets hold non-standard residues; d marks the D form. Side chains are listed from the residue outwards. Peptide text beside a SMILES is read from it. * marks the point of attachment. C18 diacid = O=C(O)CCCCCCCCCCCCCCCCC(=O)*; γGlu = O=C(O)[C@H](CCC(=O)[*:2])N[*:1]; αMeF = C[C@](N)(Cc1ccccc1)C(=O)O; αMeK = C[C@](N)(CCCCN)C(=O)O; αMeS = C[C@](N)(CO)C(=O)O; AEEA = NCCOCCOCC(=O)O; Aib = CC(C)(N)C(=O)O

Chains of the proteins cited; added tags and fusions are not shown. Residues count along the entry.
UniProt P43220, 24-463: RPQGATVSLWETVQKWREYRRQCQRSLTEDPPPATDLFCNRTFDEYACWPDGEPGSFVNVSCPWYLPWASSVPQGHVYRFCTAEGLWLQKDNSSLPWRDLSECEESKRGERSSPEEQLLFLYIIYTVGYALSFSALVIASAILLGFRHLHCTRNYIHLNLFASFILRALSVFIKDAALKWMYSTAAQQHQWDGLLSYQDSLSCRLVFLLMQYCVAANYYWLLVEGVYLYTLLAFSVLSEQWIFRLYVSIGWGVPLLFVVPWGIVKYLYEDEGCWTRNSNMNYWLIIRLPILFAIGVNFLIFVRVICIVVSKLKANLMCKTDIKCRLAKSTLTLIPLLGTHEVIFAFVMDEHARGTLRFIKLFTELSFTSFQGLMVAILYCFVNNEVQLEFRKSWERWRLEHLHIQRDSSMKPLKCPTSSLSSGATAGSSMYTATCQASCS

Target: T1, human GLP-1 receptor (GLP-1R) (Homo sapiens, UniProt P43220)
T1 construct: expressed in transfected cells; host or cells: HEK293 cells or CHO cells
Experiment: cAMP assay, human GLP-1R cells
Type: cell-based
Conditions: cAMP activity; first determination (n1); read-out: Primary assay EC50 GLP-1R n1
Description: Sample dilutions are made in duplicate.
A frozen cryo-vial of cells expressing the receptor of interest is thawed rapidly in a water-bath, transferred to pre-warmed assay buffer and spun at 240×g for 5 minutes. Cells are re-suspended in assay buffer at a batch-dependent optimized concentration (e.g. hGCGR cells at 2×10^5 cells/ml, hGLP-1R and hGIPR cells at 1×10^5 cells/ml).
To this, 5 μL cell suspension is added and the plates incubated at room temperature for 30 minutes.
cAMP levels are measured using a commercially available cAMP dynamic 2 HTRF kit (Cisbio, Cat #62AM4PEJ), following the two step protocol as per manufacturer's recommendations. In brief; anti-cAMP cryptate (donor fluorophore) and cAMP-d2 (acceptor fluorophore) are made up separately by diluting each 1/20 in conjugate & lysis buffer provided in the kit. 5 μL anti-cAMP cryptate is added to wells of the assay plate, and 5 μL cAMP-d2 is added to wells except non-specific binding (NSB) wells, to which conjugate and lysis buffer are added. […] EC50 values of the synthetic peptides determined in cAMP assays are then determined.
Data is transformed to % Delta F as described in the manufacturer's guidelines and analyzed by 4-parameter logistic fit to determine EC50 values. […]

Compound: CC[C@H](C)[C@H](NC(=O)[C@](C)(Cc1ccccc1)NC(=O)[C@H](CCC(=O)O)NC(=O)[C@H](CCCCNC(=O)COCCOCCNC(=O)COCCOCCNC(=O)CC[C@H](NC(=O)CCCCCCCCCCCCCCCCC(=O)O)C(=O)O)NC(=O)[C@H](C)NC(=O)[C@H](C)NC(=O)[C@H](CCC(=O)O)NC(=O)CNC(=O)[C@H](CCC(=O)O)NC(=O)[C@H](CC(C)C)NC(=O)[C@](C)(Cc1ccccc1)NC(=O)[C@H](CO)NC(=O)[C@](C)(CO)NC(=O)[C@@H](NC(=O)[C@H](CC(=O)O)NC(=O)[C@H](CC(=O)O)NC(=O)[C@@H](NC(=O)[C@](C)(Cc1ccccc1)NC(=O)[C@H](CO)NC(=O)CNC(=O)[C@H](CCC(=O)O)NC(=O)C(C)(C)NC(=O)[C@@H](N)Cc1c[nH]cn1)[C@@H](C)O)C(C)C)C(=O)N[C@@H](C)C(=O)N[C@@](C)(Cc1ccccc1)C(=O)N[C@H](C(=O)N[C@H](C(=O)N[C@@](C)(CCCCN)C(=O)NCC(=O)NCC(N)=O)C(C)C)C(C)C [compound 36] (H-H[Aib]EGS[αMeF]TDDV[αMeS]S[αMeF]LEGEAAK([AEEA-AEEA-γGlu-C18 diacid])E[αMeF]IA[αMeF]VV[αMeK]GG-NH2; N-terminus assumed)
- EC50: 63 nM
